Laboratory results from the supplement of paper PMC10849652.
Some of the results follow.

Protein sequences, listed by entry. Tags and fused reporters are not part of them. Lines headed by an entry give the natural chain unless they say otherwise; changes in a name come on top.
UniProt Q5RKV6, whole entry, looked up: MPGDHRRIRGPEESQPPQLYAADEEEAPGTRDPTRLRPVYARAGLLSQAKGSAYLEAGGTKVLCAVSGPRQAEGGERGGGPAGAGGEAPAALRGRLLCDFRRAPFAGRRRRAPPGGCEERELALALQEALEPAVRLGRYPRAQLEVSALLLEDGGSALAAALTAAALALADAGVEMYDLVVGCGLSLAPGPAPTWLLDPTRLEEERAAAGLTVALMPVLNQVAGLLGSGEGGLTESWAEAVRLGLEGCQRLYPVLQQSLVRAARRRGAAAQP
UniProt Q8TAV0: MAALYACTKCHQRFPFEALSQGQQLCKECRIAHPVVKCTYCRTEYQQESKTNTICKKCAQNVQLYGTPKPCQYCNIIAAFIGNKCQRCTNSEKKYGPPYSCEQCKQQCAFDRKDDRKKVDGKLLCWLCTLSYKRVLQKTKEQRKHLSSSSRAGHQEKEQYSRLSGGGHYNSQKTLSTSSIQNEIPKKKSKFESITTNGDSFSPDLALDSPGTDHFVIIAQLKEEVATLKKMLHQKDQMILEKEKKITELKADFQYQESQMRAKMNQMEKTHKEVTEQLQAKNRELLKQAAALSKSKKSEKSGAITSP
UniProt Q9NQT5, whole entry, looked up: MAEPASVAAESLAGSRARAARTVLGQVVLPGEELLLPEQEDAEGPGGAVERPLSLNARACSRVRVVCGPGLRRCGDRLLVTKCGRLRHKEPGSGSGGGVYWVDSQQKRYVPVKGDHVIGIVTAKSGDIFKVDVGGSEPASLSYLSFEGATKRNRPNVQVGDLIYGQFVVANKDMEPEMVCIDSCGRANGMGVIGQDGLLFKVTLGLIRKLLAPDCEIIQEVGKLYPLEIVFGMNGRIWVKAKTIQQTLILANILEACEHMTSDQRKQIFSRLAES
UniProt Q92520: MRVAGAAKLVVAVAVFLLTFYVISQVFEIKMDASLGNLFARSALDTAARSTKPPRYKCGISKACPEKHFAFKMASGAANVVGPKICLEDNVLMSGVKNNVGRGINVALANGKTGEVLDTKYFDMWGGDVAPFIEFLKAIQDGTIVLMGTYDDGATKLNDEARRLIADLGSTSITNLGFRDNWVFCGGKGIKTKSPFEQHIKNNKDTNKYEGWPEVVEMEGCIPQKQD
UniProt Q06265, whole entry, looked up: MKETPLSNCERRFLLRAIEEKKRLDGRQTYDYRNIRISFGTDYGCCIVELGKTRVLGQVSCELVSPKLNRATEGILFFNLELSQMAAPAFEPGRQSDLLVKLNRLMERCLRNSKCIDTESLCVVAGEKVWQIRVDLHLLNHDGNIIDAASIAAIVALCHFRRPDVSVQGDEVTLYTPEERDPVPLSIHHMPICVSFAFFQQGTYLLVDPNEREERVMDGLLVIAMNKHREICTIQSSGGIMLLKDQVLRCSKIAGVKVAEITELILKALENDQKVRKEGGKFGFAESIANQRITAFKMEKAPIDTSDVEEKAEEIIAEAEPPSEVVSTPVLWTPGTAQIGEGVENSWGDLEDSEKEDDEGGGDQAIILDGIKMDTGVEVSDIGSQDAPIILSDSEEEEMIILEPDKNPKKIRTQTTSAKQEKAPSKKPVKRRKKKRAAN
UniProt Q14320: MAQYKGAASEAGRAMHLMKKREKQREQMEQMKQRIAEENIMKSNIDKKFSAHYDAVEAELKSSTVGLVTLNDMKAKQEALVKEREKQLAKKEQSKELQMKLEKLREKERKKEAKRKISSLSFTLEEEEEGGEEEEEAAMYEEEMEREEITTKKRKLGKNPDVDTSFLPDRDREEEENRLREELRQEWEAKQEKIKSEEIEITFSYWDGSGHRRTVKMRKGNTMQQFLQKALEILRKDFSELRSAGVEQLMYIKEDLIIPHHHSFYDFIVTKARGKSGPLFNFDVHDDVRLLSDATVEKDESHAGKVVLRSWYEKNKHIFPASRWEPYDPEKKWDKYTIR
UniProt Q7Z2K6: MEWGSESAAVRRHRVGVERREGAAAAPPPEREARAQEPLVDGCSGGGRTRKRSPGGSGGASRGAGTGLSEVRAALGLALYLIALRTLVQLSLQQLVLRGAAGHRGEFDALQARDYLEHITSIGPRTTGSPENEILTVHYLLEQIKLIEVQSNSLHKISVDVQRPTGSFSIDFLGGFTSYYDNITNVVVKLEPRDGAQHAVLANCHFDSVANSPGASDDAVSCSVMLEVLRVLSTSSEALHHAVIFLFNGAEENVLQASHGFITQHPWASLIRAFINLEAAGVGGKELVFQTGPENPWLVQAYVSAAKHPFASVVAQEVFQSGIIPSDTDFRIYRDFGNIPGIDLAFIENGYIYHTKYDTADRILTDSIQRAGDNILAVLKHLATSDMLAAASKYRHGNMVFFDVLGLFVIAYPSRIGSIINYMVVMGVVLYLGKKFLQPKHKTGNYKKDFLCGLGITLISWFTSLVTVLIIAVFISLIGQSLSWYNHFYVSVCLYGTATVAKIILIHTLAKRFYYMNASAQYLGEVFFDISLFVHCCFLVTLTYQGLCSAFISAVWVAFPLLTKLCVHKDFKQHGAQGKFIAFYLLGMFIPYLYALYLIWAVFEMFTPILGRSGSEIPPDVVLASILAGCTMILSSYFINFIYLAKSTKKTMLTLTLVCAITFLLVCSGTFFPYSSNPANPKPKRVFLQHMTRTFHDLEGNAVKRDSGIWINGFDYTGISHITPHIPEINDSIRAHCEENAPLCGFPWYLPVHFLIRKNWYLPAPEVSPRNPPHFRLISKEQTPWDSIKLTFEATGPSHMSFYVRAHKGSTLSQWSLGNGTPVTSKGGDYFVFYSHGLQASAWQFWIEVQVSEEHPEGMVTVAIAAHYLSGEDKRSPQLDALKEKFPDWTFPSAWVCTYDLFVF
UniProt Q9UNN5: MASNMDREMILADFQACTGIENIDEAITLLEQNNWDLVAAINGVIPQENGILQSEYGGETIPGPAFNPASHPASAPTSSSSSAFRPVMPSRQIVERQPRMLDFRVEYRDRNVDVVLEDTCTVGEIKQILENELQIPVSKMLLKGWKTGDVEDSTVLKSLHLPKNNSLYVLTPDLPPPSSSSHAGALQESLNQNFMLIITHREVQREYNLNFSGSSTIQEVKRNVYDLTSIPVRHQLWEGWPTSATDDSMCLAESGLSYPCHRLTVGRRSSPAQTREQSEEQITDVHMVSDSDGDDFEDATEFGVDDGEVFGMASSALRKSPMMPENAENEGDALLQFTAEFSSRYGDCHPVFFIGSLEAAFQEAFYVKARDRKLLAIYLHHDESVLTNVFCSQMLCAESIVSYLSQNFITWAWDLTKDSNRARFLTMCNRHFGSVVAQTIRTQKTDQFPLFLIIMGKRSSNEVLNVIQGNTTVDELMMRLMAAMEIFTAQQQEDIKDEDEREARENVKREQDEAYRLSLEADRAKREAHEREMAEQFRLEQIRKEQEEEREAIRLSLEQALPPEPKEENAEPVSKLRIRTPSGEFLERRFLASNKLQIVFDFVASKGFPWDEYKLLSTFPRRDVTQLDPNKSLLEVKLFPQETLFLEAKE
UniProt Q9HBU6: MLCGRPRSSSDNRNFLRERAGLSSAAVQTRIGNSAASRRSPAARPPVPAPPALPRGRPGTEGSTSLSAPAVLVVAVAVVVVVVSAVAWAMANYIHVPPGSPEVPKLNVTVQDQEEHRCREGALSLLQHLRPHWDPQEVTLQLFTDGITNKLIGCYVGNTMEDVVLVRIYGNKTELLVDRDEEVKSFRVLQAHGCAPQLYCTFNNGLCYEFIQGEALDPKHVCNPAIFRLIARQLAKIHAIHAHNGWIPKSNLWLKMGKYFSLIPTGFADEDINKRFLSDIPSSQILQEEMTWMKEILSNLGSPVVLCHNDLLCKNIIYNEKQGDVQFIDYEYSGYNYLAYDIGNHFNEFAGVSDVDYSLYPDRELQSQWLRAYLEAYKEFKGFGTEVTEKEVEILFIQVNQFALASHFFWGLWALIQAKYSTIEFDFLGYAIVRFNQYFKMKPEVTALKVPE
UniProt O75063: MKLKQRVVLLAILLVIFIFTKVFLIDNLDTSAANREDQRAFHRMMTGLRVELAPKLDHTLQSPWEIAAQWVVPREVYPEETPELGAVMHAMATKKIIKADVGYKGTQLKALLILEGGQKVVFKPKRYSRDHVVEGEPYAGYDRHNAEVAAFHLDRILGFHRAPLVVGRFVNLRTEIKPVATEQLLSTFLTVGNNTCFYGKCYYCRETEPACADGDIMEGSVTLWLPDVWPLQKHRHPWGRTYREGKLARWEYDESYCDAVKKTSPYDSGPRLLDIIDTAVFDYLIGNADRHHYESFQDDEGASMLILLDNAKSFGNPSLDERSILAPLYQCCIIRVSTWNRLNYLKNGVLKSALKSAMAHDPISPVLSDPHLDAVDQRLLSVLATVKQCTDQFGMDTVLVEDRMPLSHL
UniProt Q9H501: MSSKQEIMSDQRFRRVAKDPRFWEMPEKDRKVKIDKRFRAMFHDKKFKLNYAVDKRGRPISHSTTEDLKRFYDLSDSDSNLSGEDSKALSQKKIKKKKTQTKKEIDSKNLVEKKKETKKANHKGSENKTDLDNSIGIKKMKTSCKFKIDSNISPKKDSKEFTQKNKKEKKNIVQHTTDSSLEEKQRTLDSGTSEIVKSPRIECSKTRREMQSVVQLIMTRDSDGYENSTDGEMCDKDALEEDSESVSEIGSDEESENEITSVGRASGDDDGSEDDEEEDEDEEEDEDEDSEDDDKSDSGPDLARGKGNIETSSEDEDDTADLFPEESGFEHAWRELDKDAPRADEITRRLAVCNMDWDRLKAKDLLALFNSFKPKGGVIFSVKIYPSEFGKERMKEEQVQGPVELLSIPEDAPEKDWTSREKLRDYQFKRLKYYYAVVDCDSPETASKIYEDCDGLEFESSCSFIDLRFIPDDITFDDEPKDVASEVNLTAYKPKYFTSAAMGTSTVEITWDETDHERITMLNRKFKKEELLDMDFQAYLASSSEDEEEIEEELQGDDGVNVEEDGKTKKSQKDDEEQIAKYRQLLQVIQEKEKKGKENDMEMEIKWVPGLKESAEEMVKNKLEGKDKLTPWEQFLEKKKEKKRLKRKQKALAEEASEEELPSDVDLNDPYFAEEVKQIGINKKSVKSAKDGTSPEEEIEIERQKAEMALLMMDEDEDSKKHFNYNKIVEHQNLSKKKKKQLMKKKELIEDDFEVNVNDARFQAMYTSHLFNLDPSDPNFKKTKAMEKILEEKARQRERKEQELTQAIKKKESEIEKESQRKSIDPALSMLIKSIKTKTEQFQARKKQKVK
UniProt Q96EK7: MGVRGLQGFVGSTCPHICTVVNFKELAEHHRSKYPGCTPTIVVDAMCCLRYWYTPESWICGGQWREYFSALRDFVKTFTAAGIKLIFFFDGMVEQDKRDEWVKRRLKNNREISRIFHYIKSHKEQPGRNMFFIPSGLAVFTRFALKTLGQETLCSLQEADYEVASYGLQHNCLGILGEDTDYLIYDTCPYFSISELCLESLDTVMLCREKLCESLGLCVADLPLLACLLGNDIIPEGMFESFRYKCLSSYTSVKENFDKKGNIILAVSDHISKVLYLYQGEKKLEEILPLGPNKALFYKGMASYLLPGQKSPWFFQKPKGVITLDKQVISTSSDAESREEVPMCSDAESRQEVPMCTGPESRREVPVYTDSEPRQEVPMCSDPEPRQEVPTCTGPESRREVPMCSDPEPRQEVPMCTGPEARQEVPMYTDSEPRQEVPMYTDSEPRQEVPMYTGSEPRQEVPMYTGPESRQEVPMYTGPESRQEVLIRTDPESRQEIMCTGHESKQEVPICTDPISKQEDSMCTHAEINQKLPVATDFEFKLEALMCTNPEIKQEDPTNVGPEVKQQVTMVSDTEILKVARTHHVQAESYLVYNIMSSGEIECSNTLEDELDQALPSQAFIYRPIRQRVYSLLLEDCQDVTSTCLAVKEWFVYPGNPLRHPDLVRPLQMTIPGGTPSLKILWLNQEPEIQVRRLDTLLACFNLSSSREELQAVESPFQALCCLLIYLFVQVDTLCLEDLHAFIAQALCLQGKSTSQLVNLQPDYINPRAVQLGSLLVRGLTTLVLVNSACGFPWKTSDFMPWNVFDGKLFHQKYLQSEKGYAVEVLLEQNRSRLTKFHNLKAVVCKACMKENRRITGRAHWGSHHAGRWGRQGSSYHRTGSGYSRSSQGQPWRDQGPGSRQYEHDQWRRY
UniProt Q96PL5: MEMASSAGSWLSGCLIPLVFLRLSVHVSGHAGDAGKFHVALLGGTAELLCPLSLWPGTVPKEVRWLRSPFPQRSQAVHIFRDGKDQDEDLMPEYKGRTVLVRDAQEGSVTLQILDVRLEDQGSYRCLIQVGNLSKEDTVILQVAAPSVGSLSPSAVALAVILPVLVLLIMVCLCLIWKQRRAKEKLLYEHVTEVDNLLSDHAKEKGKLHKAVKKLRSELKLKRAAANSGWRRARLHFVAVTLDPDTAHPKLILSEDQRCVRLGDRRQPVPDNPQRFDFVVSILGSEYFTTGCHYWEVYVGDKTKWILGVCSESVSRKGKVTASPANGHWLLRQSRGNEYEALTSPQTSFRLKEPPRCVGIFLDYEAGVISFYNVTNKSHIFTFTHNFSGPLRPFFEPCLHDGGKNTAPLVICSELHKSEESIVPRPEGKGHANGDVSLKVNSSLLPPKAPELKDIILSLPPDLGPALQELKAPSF

How the values were obtained:
Test in all cases: log2 fold change, soluble protein after heating vs DMSO (PISA); higher = thermal stabilisation; K562 lysate, 10 uM; active = over 0.2 and 3.5 SD of the protein, either way, in both replicates (recomputed)
ibrutinib = compound: C=CC(=O)N1CCC[C@@H](n2nc(-c3ccc(Oc4ccccc4)cc3)c3c(N)ncnc32)C1 [ibrutinib]
Outline: (§1)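 Values give the log-two fold change in thermal stability against solvent controls, from duplicates. Crude K562 extract at 1 mg/mL protein, made by dounce homogenisation in PBS pH 7.4 with 1 mM MgCl2, was treated with 10 μM compound for 30 min. After 3 min heating across 48°C-58°C, aliquots were pooled, adjusted to 0.5% NP-40 at 4°C and centrifuged at 21,000xg for 90 min. The supernatant was measured by TMTpro 16plex LC-MS/MS with channel sums equalised.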

[1] = compound: CC(=O)c1cnc2ccc(-c3cc(Cl)c(O)c(Cl)c3)nc2c1N[C@H]1CC[C@H](CN(C)C)CC1
Outline: as §1

ralimetinib = compound: CC(C)(C)Cn1c(N)nc2ccc(-c3[nH]c(C(C)(C)C)nc3-c3ccc(F)cc3)nc21 [ralimetinib]
Outline: as §1

[2] = compound: CC(C)(O)CC(=O)NCCn1ccc2ncnc(Nc3ccc(Oc4cccc(C(F)(F)F)c4)c(Cl)c3)c21
Outline: as §1

[3] = compound: CC(C)C1=C2N=C(C=C(N2N=C1)NCC3=CC=CC=C3)NCCCCCCN
Outline: as §1

[4] = compound: CC1=C(C(CC(=O)N1)C2=CC=C(C=C2)C(F)(F)F)C(=O)NC3=C(C=C4C(=C3)C=NN4)F
Outline: as §1

[5] = compound: CC1=C(C2=C(C=C1)C(=O)C3=CC=CC=C3N2CCCN)C
Outline: as §1

[6] = compound: CC1=C(C=C(C=C1)NC(=O)C2=CC(=CC=C2)C(C)(C)C#N)NC3=CC4=C(C=C3)N=CN(C4=O)C
Outline: as §1

[7] = compound: CC1=C(C=C(C=C1)NC(=O)C2=CC(=CC=C2)N(C)C)NC(=O)C3=CC=C(C=C3)O
Outline: as §1

[8] = compound: CC1=CC=C(C=C1)SC2=C3C=C(SC3=CN=C2)C(=O)N
Outline: as §1

vemurafenib = compound: CCCS(=O)(=O)Nc1ccc(F)c(C(=O)c2c[nH]c3ncc(-c4ccc(Cl)cc4)cc23)c1F [vemurafenib]
Outline: as §1

[9] = compound: CCCS(=O)(=O)Nc1ccc(F)c(C(=O)c2c[nH]c3ncc(Cl)cc23)c1F
Outline: as §1

barasertib = compound: CCN(CCCOc1ccc2c(Nc3cc(CC(=O)Nc4cccc(F)c4)[nH]n3)ncnc2c1)CCOP(=O)(O)O [barasertib]
Outline: as §1

[10] = compound: CC[C@@H]1C(=O)N(C)c2cnc(Nc3ccc(C(=O)NC4CCN(C)CC4)cc3OC)nc2N1C1CCCC1
Outline: as §1

volasertib = compound: CC[C@@H]1C(=O)N(C)c2cnc(Nc3ccc(C(=O)N[C@H]4CC[C@H](N5CCN(CC6CC6)CC5)CC4)cc3OC)nc2N1C(C)C [volasertib]
Outline: as §1

[11] = compound: CCn1c(C(=O)N(C2CC2)C2CC2)cc2c3c(ncn3C)c(Nc3cc(C)n(C)n3)nc21
Outline: as §1

[12] = compound: CCn1cc(-c2ccnc3[nH]c(-c4cccc(CN(C)C)c4)cc23)c(-c2ccc(NC(=O)N(C)C)cc2)n1
Outline: as §1

[13] = compound: CN1CCC(CNc2ccc3ncc(-c4cccc(OC(F)(F)F)c4)n3n2)CC1
Outline: as §1

saracatinib = compound: CN1CCN(CCOc2cc(OC3CCOCC3)c3c(Nc4c(Cl)ccc5c4OCO5)ncnc3c2)CC1 [saracatinib]
Outline: as §1

sotrastaurin = compound: CN1CCN(c2nc(C3=C(c4c[nH]c5ccccc45)C(=O)NC3=O)c3ccccc3n2)CC1 [sotrastaurin]
Outline: as §1

Measured: log2 fold change

EXOSC6 (UniProt Q5RKV6)
inactive: ibrutinib -0.005 | [1] 0.017 | ralimetinib -0.01 | [2] -0.024 | [3] 0.004 | [4] -0.02 | [5] -0.009 | [6] 0.03 | [7] -0.018 | [8] 0.021 | vemurafenib -0.017 | [9] 0.036 | barasertib -0.018 | [10] 0.007 | volasertib 0.02 | [11] 0.01 | [12] -0.029 | [13] 0.043 | saracatinib 0.032 | sotrastaurin -0.032

FAM76A isoform 3 (UniProt Q8TAV0)
inactive: ibrutinib 0.119 | [1] 0.005 | ralimetinib 0.006 | [2] -0.153 | [3] -0.115 | [4] -0.033 | [5] -0.05 | [6] 0.061 | [7] 0 | [8] 0.023 | vemurafenib 0.059 | [9] -0.005 | barasertib -0.117 | [10] 0.03 | volasertib -0.066 | [11] -0.015 | [12] -0.116 | [13] 0.047 | saracatinib 0.019 | sotrastaurin -0.051

EXOSC3 (UniProt Q9NQT5)
inactive: ibrutinib -0.004 | [1] -0.01 | ralimetinib 0.007 | [2] -0.063 | [3] 0.016 | [4] 0.016 | [5] -0.042 | [6] 0.047 | [7] -0.027 | [8] 0.008 | vemurafenib 0.005 | [9] 0.004 | barasertib 0.017 | [10] 0.008 | volasertib -0.025 | [11] -0.067 | [12] -0.106 | [13] 0.066 | saracatinib -0.023 | sotrastaurin 0.008

FAM3C (UniProt Q92520)
inactive: ibrutinib 0.013 | [1] 0.001 | ralimetinib 0.008 | [2] -0.026 | [3] 0.036 | [4] 0 | [5] 0.019 | [6] 0.008 | [7] -0.082 | [8] -0.019 | vemurafenib 0.086 | [9] -0.012 | barasertib -0.017 | [10] 0.019 | volasertib -0.001 | [11] -0.008 | [12] 0.008 | [13] -0.032 | saracatinib 0.017 | sotrastaurin -0.003

EZH2 isoform 2 (UniProt Q15910)
inactive: ibrutinib 0.086 | [1] 0.023 | ralimetinib 0.001 | [2] 0.004 | [3] 0.002 | [4] 0 | [5] -0.01 | [6] 0.004 | [7] 0.003 | [8] -0.021 | vemurafenib 0.069 | [9] -0.024 | barasertib -0.054 | [10] 0.083 | volasertib -0.039 | [11] 0 | [12] 0.119 | [13] -0.151 | saracatinib 0.023 | sotrastaurin 0.047

EXOSC9 (UniProt Q06265)
inactive: ibrutinib 0.006 | [1] -0.011 | ralimetinib -0.016 | [2] 0.001 | [3] -0.023 | [4] -0.031 | [5] -0.007 | [6] 0.063 | [7] -0.01 | [8] -0.001 | vemurafenib -0.02 | [9] 0.012 | barasertib -0.017 | [10] 0.037 | volasertib 0.014 | [11] -0.038 | [12] 0.024 | [13] -0.007 | saracatinib -0.033 | sotrastaurin -0.007

FAM50A (UniProt Q14320)
inactive: ibrutinib 0.005 | [1] -0.017 | ralimetinib 0.052 | [2] 0.027 | [3] -0.016 | [4] 0.014 | [5] -0.001 | [6] -0.035 | [7] -0.028 | [8] -0.03 | vemurafenib -0.022 | [9] 0.012 | barasertib -0.02 | [10] -0.017 | volasertib 0.014 | [11] 0.004 | [12] 0.168 | [13] -0.011 | saracatinib 0.016 | sotrastaurin 0.008

ERMP1 (UniProt Q7Z2K6)
inactive: ibrutinib 0.041 | [1] 0.002 | ralimetinib -0.01 | [2] -0.028 | [3] 0.025 | [4] -0.052 | [5] 0.001 | [6] 0.031 | [7] 0.057 | [8] 0.007 | vemurafenib 0.032 | [9] 0.029 | barasertib 0.021 | [10] 0.01 | volasertib 0.04 | [11] -0.02 | [12] -0.114 | [13] 0.082 | saracatinib 0.012 | sotrastaurin -0.02

FAF1 (UniProt Q9UNN5)
inactive: ibrutinib 0.028 | [1] -0.012 | ralimetinib -0.014 | [2] -0.013 | [3] -0.013 | [4] -0.014 | [5] -0.02 | [6] -0.01 | [7] 0.016 | [8] -0.024 | vemurafenib -0.006 | [9] 0.014 | barasertib -0.001 | [10] 0.013 | volasertib 0.011 | [11] 0.003 | [12] 0.002 | [13] 0.013 | saracatinib -0.006 | sotrastaurin 0.024

ESYT1 isoform 2 (UniProt Q9BSJ8)
inactive: ibrutinib -0.019 | [1] 0.003 | ralimetinib 0.006 | [2] -0.008 | [3] 0.011 | [4] -0.023 | [5] 0.001 | [6] -0.057 | [7] 0.016 | [8] 0.005 | vemurafenib 0.004 | [9] -0.009 | barasertib 0.012 | [10] -0.05 | volasertib -0.037 | [11] -0.027 | [12] -0.04 | [13] 0.035 | saracatinib 0.027 | sotrastaurin 0.061

ETNK1 (UniProt Q9HBU6)
inactive: ibrutinib -0.014 | [1] -0.027 | ralimetinib -0.026 | [2] -0.01 | [3] -0.02 | [4] -0.045 | [5] 0.009 | [6] 0.013 | [7] 0.025 | [8] -0.02 | vemurafenib -0.039 | [9] 0.035 | barasertib 0.059 | [10] 0.054 | volasertib -0.014 | [11] -0.019 | [12] -0.085 | [13] 0.028 | saracatinib 0.014 | sotrastaurin 0.023

Reprinted from the listing (three entries):
EXOSC3 (UniProt Q9NQT5)
inactive: ibrutinib -0.004 | [1] -0.01 | ralimetinib 0.007 | [2] -0.063 | [3] 0.016 | [4] 0.016 | [5] -0.042 | [6] 0.047 | [7] -0.027 | [8] 0.008 | vemurafenib 0.005 | [9] 0.004 | barasertib 0.017 | [10] 0.008 | volasertib -0.025 | [11] -0.067 | [12] -0.106 | [13] 0.066 | saracatinib -0.023 | sotrastaurin 0.008

FAM3C (UniProt Q92520)
inactive: ibrutinib 0.013 | [1] 0.001 | ralimetinib 0.008 | [2] -0.026 | [3] 0.036 | [4] 0 | [5] 0.019 | [6] 0.008 | [7] -0.082 | [8] -0.019 | vemurafenib 0.086 | [9] -0.012 | barasertib -0.017 | [10] 0.019 | volasertib -0.001 | [11] -0.008 | [12] 0.008 | [13] -0.032 | saracatinib 0.017 | sotrastaurin -0.003

EZH2 isoform 2 (UniProt Q15910)
inactive: ibrutinib 0.086 | [1] 0.023 | ralimetinib 0.001 | [2] 0.004 | [3] 0.002 | [4] 0 | [5] -0.01 | [6] 0.004 | [7] 0.003 | [8] -0.021 | vemurafenib 0.069 | [9] -0.024 | barasertib -0.054 | [10] 0.083 | volasertib -0.039 | [11] 0 | [12] 0.119 | [13] -0.151 | saracatinib 0.023 | sotrastaurin 0.047

The list goes on:

FAM20B (UniProt O75063)
inactive: ibrutinib 0.04 | [1] 0.021 | ralimetinib -0.026 | [2] 0.009 | [3] -0.043 | [4] 0.023 | [5] -0.113 | [6] -0.031 | [7] -0.063 | [8] -0.046 | vemurafenib 0.003 | [9] -0.019 | barasertib 0.053 | [10] 0.003 | volasertib -0.032 | [11] 0.08 | [12] 0.049 | [13] 0.012 | saracatinib -0.042 | sotrastaurin 0.016

ESF1 (UniProt Q9H501)
inactive: ibrutinib 0.043 | [1] -0.015 | ralimetinib 0.003 | [2] 0.038 | [3] -0.007 | [4] 0.01 | [5] -0.028 | [6] 0.02 | [7] -0.029 | [8] 0.028 | vemurafenib -0.012 | [9] 0.104 | barasertib 0.03 | [10] -0.02 | volasertib -0.118 | [11] -0.005 | [12] -0.022 | [13] -0.088 | saracatinib -0.017 | sotrastaurin -0.001

FAM120B (UniProt Q96EK7)
inactive: ibrutinib 0.023 | [1] -0.003 | ralimetinib 0.035 | [2] -0.013 | [3] 0.031 | [4] -0.028 | [5] 0.002 | [6] 0.008 | [7] 0.041 | [8] 0.012 | vemurafenib 0.001 | [9] 0.045 | barasertib -0.009 | [10] 0.01 | volasertib -0.029 | [11] 0.033 | [12] -0.011 | [13] -0.085 | saracatinib 0.005 | sotrastaurin 0.008

ERMAP (UniProt Q96PL5)
inactive: ibrutinib 0.072 | [1] -0.01 | ralimetinib 0.003 | [2] -0.092 | [3] -0.061 | [4] 0.023 | [5] -0.051 | [6] -0.049 | [7] -0.042 | [8] 0.039 | vemurafenib 0.085 | [9] 0.006 | barasertib -0.042 | [10] 0.035 | volasertib -0.003 | [11] -0.012 | [12] -0.135 | [13] 0.134 | saracatinib 0.03 | sotrastaurin 0

FAM49B, A0A1W2PRQ0
inactive: ibrutinib -0.09 | ralimetinib -0.156 | [2] 0.187 | [7] -0.071 | vemurafenib 0.22 | barasertib -0.08 | [10] 0.22 | [11] 0.038

EYA3 (UniProt Q99504)
inactive: ibrutinib 0.037 | [1] -0.008 | ralimetinib 0.059 | [2] -0.087 | [3] 0.003 | [4] 0.041 | [5] 0.072 | [6] 0.029 | [7] -0.006 | [8] -0.037 | vemurafenib 0.09 | [9] 0.062 | barasertib -0.022 | [10] -0.04 | volasertib -0.042 | [11] -0.05 | [12] -0.14 | [13] -0.068 | saracatinib -0.015 | sotrastaurin -0.028
